Measured values reported in patent US20210388260A1, “USE OF A SUBSTITUTED OR UNSUBSTITUTED POLYCYCLIC AROMATIC HYDROCARBON COMPOUND FOR HIGH-RESOLUTION MICROSCOPY” (Max-Planck-Gesellschaft zur Förderung der Wissenschaften e.V, priority 2018, published 2021).

Assay: Blinking properties of different compounds (duty cycle, photons per switching event, blinking time)
Type: physicochemical

With `Cc1cc(C)c(-c2c3cccc4c5ccc6ccc7c(-c8c(C)cc(C)cc8C)c8cccc9c%10ccc%11ccc2c2c%11c%10c%10c(c89)c7c6c5c%10c2c34)c(C)c1` [DBOV-Mes, 6,14-dimesityldibenzo[hi,st]ovalene] the Blinking time (Air) was 108 ms, the “Detected photons per switching event” value (Air) was 5.570 and the Duty cycle (Air) was 4.7 ×10^−4. For the same compound, the Blinking time (DPBS) was 87 ms, the “Detected photons per switching event” value (DPBS) was 4.918 and the Duty cycle (DPBS) was 1.3 ×10^−4. For the same compound, the Blinking time (PS (polystyrene)) was 54 ms, the “Detected photons per switching event” value (PS (polystyrene)) was 4.902 and the Duty cycle (PS (polystyrene)) was 8 ×10^−4.
